Assay results published in article PMC11652107.

Biological target: HA-HMGA1 (HMGA1 overexpressed in cells) (human (cloned from TE13 cells)) (UniProt P17096)
Test: affinity purification with mass spectrometry; whole-cell lysates of HMGA1-overexpressing KYSE30 cells, IP with anti-HMGA1 antibody or control IgG, protein A/G beads, SDS-PAGE, Coomassie staining, LC-MS/MS

binding: binds
Substance: poly(ADP‐ribose) polymerase 1 (PARP1), endogenous (from UniProt P09874 1-1014) (enzyme)

Results are given in words; binding and its absence hold for the method and conditions named. Binding seen in cells or lysates may run through a third protein. Here binding means that the protein was enriched with, or labelled near, the bait; the list need not be complete.
